No constants are given. Whether binding was seen depends on the method and setting. Binding seen in cells or lysates may run through a third protein. Some entries that bind do so weakly or less than the wild type. For some assays here: Tags and fused reporters may be left off the sequences shown.
Assays:
[1] = molecular target: T1, His10-tagged recombinant PDIP38 (H10PDIP38) (human) (UniProt Q9Y2S7); experiment: pull-down; H10PDIP38 immobilised to Ni-NTA agarose, detergent-solubilised HeLa mitochondria applied; only the target purified
T1 sequence: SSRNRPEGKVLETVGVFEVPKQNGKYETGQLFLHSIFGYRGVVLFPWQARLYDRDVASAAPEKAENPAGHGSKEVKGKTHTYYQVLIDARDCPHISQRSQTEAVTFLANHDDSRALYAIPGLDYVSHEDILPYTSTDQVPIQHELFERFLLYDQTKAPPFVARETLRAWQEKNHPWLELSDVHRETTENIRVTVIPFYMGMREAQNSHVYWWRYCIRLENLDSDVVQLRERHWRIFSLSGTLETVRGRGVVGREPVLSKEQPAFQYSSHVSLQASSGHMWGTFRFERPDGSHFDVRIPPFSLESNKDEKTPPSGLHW

Amino acid sequences for entries named in this document (tags omitted). Residues count along the entry.
UniProt O76031, residues 57-633: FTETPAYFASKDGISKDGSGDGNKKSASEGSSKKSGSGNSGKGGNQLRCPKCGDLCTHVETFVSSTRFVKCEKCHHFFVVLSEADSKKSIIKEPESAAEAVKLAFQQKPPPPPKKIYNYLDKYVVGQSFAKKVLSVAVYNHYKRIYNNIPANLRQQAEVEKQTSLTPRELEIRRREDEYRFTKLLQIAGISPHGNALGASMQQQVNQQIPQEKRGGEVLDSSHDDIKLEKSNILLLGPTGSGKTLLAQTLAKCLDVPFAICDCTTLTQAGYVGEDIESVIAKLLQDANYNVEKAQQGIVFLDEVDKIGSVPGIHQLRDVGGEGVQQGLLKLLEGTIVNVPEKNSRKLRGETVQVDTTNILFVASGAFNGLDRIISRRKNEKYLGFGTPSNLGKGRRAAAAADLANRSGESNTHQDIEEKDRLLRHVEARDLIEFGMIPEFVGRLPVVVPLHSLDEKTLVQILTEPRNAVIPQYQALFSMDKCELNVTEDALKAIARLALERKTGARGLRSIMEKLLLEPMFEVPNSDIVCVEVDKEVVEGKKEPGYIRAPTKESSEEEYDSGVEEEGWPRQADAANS

[2] = molecular target: T2, Polymerase δ interacting protein of 38 kDa (PDIP38), endogenous (human (endogenous in HeLa)) (UniProt Q9Y2S7); experiment: co-IP; endogenous proteins from detergent-solubilised HeLa mitochondria; anti-PDIP38 or anti-CLPX antibodies covalently attached to protein A sepharose; IP buffer pH 7.5, 100 mM KCl, 0.5% Triton X-100, 10 mM ATP, 1 h at 4 °C; preimmune serum as control
T2 sequence: T1 sequence

CLPX, endogenous (from UniProt O76031 57-633)
binding [1]: binds
binding [2]: binds

Source: paper PMC7647994
